Laboratory results published in paper PMC10469627, “Molecular basis of the glycosomal targeting of PEX11 and its mislocalization to mitochondrion in trypanosomes” (Frontiers in Cell and Developmental Biology, 2023).
Results are given in words; binding and its absence hold for the method and conditions named. For some of these results: Binding can be weak; no strength is given. For some of these results: Sequences can lack the tags named with a protein.

Key:
[1] = biological target: T1, GAL4 BD-TbPEX11_(1-76aa) (Trypanosoma brucei) (UniProt O60944); experiment: two-hybrid; GAL4 BD-TbPEX11 constructs (pPC97) and GAL4 AD-TbPEX19 (pPC86) co-transformed in WT PCY2; colony-lift filter β-galactosidase assay and liquid ONPG assay, three replicates
T1 sequence: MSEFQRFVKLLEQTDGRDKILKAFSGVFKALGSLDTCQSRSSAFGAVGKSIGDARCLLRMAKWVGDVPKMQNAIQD

[2] = biological target: T2, GAL4 BD-TbPEX11_(90-218aa) (Trypanosoma brucei) (UniProt O60944); experiment: as above
T2 sequence: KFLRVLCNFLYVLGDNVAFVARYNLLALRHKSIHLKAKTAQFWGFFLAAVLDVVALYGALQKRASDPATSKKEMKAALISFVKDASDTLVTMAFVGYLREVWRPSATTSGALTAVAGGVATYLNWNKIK

[3] = biological target: T3, GAL4 BD-TbPEX11_(1-218aa) (Trypanosoma brucei) (UniProt O60944); experiment: as above
T3 sequence: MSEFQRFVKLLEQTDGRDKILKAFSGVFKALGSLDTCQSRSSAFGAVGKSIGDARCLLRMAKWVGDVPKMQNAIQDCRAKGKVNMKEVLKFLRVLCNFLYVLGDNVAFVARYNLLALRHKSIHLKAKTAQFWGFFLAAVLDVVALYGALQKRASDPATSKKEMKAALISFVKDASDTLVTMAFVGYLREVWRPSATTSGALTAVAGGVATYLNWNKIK

[4] = biological target: T4, GAL4 BD-TbPEX11_(1-89aa) (Trypanosoma brucei) (UniProt O60944); experiment: as above
T4 sequence: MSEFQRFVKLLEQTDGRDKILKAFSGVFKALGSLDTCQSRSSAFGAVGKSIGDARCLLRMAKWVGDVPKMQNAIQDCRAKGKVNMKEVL

[5] = biological target: T5, TbPEX11 array peptides of BS2 (aa 77-99) (Trypanosoma brucei); experiment: peptide or protein array; 15-mer peptides (2 aa shift) on a cellulose membrane; probed with 1 µM GST fusion or GST in TBS + 3% BSA + 0.05% Tween-20, 1 h at 4°C; detected with anti-GST antibody and chemiluminescence; at least three consecutive spots counted as a potential site; both purified
T5 sequence (peptide): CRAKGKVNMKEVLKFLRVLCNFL

[6] = biological target: T6, TbPEX11 array peptides of BS1 (aa 13-35) (Trypanosoma brucei); experiment: as above
T6 sequence (peptide): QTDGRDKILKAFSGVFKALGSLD

[7] = biological target: T7, TbPEX11 array peptides of BS3 (aa 139-159) (Trypanosoma brucei); experiment: as above
T7 sequence (peptide): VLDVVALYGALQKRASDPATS

[8] = biological target: GST-TbPEX19 (Trypanosoma brucei); experiment: pull-down; 200 µg GST-TbPEX19 or GST on Glutathione Agarose 4B beads; 25 µg C-terminally His6-tagged peptide, 2 h at 4°C; PBS washes; eluted with 10 mM reduced glutathione; Coomassie staining and anti-His6 blot; both purified
[9] = biological target: GST-TbPEX19 (Trypanosoma brucei); experiment: AlphaScreen or HTRF; 30 nM GST-TbPEX19 and 300 nM His6-tagged TbPEX11 peptide in PBS pH 7.4 with 0.5% BSA, room temperature; Nickel-chelate acceptor beads and Glutathione donor beads; GST as negative control; both purified

GAL4 AD-TbPEX19_(1-285aa) (Trypanosoma brucei)
binding [1]: binds | binding [2]: no binding | binding [3]: binds weakly | binding [4]: binds

GST-TbPEX19 (Trypanosoma brucei)
binding [5]: binds | binding [6]: binds | binding [7]: binds

B1: TbPEX11 BS1 peptide, C-terminally His6-tagged (…-GS-His6) (peptide)
peptide: QTDGRDKILKAFSGVFKALGSLDGS
binding [8]: no binding (tested: 25 µg of peptide) | binding [9]: no binding (tested: 300 nM)

B2: TbPEX11 BS3 peptide, C-terminally His6-tagged (…-GS-His6) (peptide)
peptide: VLDVVALYGALQKRASDPATSGS
binding [8]: no binding (tested: 25 µg of peptide)
